Results: paper PMC11337750
No constants are given. Whether binding was seen depends on the method and setting. Binding seen in cells or lysates may run through a third protein. Some results given as binding are weak or reduced against the parent protein; the word gives no strength.

By UniProt entry, the sequences of proteins in these tests, tags left out. Residues count along the entry.
UniProt O60486, residues 35-1568: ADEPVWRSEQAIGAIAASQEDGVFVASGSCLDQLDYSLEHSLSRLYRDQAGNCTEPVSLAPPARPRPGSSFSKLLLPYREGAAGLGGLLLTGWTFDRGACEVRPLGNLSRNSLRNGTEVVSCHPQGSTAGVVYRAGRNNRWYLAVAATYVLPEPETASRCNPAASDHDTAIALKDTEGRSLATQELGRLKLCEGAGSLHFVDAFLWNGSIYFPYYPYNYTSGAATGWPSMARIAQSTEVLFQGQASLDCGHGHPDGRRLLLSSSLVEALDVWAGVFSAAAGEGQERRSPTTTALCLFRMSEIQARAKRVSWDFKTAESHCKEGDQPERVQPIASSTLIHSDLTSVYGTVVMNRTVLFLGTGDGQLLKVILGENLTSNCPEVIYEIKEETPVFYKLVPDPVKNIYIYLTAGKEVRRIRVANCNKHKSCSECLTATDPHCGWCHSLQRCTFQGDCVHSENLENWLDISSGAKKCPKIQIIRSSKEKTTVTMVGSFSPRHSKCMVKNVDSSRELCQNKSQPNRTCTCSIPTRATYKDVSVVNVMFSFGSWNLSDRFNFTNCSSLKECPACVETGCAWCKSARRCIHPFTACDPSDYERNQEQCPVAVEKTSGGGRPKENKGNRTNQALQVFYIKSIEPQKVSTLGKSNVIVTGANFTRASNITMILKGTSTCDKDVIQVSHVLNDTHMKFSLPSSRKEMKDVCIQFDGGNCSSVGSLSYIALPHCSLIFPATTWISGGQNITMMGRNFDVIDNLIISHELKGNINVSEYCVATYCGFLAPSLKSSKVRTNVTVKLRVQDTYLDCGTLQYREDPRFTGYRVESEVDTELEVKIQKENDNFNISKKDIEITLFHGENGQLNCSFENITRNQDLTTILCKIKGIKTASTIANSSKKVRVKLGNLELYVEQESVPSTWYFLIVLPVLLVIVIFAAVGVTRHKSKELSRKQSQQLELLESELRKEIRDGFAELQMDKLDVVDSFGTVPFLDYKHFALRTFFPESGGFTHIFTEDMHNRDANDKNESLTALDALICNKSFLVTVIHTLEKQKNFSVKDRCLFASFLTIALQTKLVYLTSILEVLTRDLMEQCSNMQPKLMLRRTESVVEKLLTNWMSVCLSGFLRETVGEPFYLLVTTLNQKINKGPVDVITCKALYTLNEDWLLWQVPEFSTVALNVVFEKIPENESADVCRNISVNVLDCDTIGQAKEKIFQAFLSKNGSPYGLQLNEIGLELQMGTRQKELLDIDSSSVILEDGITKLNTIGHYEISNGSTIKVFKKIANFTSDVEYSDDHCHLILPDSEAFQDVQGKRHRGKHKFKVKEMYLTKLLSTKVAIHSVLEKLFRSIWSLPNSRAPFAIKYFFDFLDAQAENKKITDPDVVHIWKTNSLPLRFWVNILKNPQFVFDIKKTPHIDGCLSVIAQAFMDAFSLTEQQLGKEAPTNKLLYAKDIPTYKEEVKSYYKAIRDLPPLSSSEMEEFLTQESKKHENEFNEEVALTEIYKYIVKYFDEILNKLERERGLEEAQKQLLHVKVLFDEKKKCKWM
UniProt Q8NFM4: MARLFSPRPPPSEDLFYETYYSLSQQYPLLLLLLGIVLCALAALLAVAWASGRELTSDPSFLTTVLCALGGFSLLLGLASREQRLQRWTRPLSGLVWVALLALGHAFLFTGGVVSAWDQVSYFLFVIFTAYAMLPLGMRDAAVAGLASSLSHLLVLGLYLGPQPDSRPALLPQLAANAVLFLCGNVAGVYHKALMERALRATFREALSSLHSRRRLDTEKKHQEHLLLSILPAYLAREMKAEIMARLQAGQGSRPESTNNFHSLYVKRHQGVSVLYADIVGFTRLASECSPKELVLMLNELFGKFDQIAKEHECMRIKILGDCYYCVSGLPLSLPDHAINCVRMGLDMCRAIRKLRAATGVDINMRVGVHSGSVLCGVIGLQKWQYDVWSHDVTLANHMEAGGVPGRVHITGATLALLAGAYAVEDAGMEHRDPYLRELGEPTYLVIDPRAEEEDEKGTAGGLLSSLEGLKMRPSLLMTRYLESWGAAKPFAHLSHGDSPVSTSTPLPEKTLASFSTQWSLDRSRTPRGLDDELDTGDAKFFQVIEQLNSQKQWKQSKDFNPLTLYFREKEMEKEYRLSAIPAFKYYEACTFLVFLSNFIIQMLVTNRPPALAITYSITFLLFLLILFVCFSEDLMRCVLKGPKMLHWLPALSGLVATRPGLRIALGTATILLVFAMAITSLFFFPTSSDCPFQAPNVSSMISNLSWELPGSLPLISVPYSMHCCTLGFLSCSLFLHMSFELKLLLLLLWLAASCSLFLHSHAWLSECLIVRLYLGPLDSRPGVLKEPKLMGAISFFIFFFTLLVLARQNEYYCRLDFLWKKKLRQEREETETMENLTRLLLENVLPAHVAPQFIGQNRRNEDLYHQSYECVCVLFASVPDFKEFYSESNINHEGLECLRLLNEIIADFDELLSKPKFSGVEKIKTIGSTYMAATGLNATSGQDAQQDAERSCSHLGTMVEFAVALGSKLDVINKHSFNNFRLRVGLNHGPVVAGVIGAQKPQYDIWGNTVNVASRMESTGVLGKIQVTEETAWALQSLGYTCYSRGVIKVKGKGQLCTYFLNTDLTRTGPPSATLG

Molecular target: plexin C1 (PLXNC1) (human (endogenous in peripheral blood monocytes/macrophages)) (UniProt O60486)
Test: co-IP; endogenous proteins in lysate of human peripheral blood monocytes/macrophages (transfected with LPS according to the legend of Fig. 4D); anti-Plexin C1 antibody immobilised on resin (Pierce Co-IP kit), 1 mg protein, overnight at 4 °C; eluate blotted for ADCY4; mouse or rabbit IgG as control

binding: binds
Substance: adenylate cyclase 4 (ADCY4) (from UniProt Q8NFM4 1-1077) (enzyme)
